Test results reported in paper PMC6615629, “Hsp70-nucleotide exchange factor (NEF) Fes1 has non-NEF roles in degradation of gluconeogenic enzymes and cell wall integrity” (PLoS Genetics, 2019).
Results are given in words; binding and its absence hold for the method and conditions named. Binding seen in cells or lysates may run through a third protein. Binding calls can cover weak binding; strength is not graded here.

Molecular target: Fes1ΔRD-GST (yeast (S. cerevisiae))
Assay: pull-down; Fes1-GST fusions purified on GST-beads from lysates of fes1Δ yeast grown at 30°C with or without calcofluor white (60 min); eluted with 20 mM glutathione; western blot for Slt2

B1: Slt2 (enzyme, UniProt Q00772 1-484)
chain: MADKIERHTFKVFNQDFSVDKRFQLIKEIGHGAYGIVCSARFAEAAEDTTVAIKKVTNVFSKTLLCKRSLRELKLLRHFRGHKNITCLYDMDIVFYPDGSINGLYLYEELMECDMHQIIKSGQPLTDAHYQSFTYQILCGLKYIHSADVLHRDLKPGNLLVNADCQLKICDFGLARGYSENPVENSQFLTEYVATRWYRAPEIMLSYQGYTKAIDVWSAGCILAEFLGGKPIFKGKDYVNQLNQILQVLGTPPDETLRRIGSKNVQDYIHQLGFIPKVPFVNLYPNANSQALDLLEQMLAFDPQKRITVDEALEHPYLSIWHDPADEPVCSEKFEFSFESVNDMEDLKQMVIQEVQDFRLFVRQPLLEEQRQLQLQQQQQQQQQQQQQQQQPSDVDNGNAAASEENYPKQMATSNSVAPQQESFGIHSQNLPRHDADFPPRPQESMMEMRPATGNTADIPPQNDNGTLLDLEKELEFGLDRKYF
- binding: binds
